Assay results published in the supplement of paper PMC10849652.
This is one part of the list.

By UniProt entry, the sequences of proteins in these tests, tags left out. Where a name states a change or a piece, a line headed by the entry shows the natural chain unless it says otherwise.
UniProt Q14203, whole entry, looked up: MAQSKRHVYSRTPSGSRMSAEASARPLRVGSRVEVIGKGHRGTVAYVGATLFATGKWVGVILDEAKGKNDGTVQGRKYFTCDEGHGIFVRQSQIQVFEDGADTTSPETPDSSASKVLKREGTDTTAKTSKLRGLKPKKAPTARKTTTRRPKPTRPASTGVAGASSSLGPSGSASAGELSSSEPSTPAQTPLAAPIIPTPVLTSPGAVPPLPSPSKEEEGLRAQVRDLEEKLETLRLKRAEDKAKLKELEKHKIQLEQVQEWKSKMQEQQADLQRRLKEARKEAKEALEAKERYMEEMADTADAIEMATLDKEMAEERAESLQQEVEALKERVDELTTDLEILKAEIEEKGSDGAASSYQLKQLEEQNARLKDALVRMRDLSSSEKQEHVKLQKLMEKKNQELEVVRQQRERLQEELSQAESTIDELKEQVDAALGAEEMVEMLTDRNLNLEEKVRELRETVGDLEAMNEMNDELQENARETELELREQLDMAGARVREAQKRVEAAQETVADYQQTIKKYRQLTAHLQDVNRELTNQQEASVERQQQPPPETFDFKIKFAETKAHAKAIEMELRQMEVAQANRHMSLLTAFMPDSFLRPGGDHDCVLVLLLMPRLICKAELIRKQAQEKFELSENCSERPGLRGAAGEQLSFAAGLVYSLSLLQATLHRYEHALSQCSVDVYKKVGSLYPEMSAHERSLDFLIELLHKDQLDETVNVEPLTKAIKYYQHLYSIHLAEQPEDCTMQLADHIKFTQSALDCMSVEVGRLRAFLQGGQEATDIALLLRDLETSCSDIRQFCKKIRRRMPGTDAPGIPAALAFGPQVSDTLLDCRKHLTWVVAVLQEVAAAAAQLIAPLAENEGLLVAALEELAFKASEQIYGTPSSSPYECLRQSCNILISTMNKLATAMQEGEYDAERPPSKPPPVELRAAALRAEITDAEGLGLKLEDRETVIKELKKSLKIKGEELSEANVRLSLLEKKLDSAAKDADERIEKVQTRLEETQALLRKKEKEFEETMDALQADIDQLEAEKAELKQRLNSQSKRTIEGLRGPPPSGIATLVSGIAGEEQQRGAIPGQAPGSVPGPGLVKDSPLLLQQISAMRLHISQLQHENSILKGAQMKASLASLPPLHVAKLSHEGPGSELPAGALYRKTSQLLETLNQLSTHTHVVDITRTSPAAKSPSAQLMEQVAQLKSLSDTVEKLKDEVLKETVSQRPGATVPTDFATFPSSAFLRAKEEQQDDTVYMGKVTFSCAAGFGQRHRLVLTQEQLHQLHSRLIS
UniProt Q9UHI6: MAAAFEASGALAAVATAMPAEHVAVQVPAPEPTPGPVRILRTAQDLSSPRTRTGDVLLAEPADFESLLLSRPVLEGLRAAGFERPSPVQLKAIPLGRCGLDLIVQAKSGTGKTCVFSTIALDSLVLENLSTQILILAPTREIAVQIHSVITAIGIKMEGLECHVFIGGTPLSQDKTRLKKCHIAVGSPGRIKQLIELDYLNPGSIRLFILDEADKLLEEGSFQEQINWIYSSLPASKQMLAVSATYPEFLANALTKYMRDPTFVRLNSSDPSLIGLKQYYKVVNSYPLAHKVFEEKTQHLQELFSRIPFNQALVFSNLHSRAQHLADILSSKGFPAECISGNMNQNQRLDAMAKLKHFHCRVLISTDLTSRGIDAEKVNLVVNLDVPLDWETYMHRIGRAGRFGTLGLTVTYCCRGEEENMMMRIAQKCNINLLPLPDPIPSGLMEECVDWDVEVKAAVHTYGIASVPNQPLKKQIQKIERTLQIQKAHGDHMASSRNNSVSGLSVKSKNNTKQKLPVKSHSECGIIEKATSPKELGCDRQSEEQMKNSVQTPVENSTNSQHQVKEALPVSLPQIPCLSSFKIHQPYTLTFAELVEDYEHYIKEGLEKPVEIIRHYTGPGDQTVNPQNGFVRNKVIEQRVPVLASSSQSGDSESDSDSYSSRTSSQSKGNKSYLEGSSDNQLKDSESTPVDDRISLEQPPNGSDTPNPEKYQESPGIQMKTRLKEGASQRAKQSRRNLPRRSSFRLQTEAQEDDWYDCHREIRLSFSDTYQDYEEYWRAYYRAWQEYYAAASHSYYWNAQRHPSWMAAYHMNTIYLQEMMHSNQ
UniProt O75935, whole entry, looked up: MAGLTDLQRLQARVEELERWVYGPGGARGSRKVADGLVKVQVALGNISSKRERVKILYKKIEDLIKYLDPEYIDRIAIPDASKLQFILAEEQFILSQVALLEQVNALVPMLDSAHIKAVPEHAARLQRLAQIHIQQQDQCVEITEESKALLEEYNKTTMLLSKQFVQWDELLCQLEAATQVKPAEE
UniProt Q8NEL9: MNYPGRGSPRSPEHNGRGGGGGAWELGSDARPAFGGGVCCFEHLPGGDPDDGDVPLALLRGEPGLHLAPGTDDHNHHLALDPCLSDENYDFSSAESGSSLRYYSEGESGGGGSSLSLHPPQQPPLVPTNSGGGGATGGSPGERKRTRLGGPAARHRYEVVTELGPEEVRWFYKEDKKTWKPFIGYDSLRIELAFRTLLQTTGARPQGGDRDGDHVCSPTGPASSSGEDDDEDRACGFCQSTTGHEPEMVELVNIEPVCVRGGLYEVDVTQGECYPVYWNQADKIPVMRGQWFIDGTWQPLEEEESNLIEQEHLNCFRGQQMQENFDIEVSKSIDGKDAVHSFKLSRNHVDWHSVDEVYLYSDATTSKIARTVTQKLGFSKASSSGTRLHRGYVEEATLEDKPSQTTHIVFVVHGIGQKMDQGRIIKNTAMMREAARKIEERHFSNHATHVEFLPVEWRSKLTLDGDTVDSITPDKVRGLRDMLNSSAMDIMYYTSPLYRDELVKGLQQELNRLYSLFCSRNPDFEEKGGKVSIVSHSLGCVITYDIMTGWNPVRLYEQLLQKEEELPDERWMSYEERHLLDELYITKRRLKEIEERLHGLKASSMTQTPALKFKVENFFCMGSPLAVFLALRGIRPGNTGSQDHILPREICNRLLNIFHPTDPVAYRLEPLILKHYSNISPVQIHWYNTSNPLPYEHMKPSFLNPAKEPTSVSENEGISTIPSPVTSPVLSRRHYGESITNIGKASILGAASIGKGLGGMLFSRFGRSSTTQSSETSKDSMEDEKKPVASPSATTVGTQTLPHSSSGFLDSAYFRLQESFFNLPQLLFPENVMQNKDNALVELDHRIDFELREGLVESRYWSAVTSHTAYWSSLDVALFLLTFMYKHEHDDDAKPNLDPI
UniProt Q8N465: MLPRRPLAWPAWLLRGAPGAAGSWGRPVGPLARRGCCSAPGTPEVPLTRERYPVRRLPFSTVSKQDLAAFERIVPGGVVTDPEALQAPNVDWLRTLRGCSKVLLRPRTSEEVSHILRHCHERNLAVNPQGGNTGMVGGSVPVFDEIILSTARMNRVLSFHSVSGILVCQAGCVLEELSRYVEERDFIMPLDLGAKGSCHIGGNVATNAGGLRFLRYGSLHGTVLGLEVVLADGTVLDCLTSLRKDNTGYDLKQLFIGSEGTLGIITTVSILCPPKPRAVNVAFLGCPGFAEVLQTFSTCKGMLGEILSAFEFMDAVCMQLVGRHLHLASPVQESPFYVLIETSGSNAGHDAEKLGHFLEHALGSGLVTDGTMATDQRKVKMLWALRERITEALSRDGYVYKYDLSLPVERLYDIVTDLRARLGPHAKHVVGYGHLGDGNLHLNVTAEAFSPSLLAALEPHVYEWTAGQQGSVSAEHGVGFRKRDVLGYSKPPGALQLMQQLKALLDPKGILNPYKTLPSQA
UniProt P61803: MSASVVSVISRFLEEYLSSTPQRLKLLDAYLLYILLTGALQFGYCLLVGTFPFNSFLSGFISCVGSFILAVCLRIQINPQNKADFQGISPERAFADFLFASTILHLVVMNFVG
UniProt P14868: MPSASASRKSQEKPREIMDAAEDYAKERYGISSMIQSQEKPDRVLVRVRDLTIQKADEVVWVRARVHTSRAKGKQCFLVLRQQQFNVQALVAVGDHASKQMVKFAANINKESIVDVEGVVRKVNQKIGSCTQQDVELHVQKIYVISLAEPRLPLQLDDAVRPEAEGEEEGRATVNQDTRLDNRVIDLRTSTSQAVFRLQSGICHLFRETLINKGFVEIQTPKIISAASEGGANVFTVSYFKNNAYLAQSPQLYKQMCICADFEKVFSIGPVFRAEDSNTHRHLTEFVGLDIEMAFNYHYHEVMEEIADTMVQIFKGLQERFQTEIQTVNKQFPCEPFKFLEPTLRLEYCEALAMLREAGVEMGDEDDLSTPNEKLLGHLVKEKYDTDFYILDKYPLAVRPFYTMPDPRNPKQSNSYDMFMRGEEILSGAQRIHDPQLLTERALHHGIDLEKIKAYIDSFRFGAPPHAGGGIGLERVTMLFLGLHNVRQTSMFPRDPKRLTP
UniProt Q7L014: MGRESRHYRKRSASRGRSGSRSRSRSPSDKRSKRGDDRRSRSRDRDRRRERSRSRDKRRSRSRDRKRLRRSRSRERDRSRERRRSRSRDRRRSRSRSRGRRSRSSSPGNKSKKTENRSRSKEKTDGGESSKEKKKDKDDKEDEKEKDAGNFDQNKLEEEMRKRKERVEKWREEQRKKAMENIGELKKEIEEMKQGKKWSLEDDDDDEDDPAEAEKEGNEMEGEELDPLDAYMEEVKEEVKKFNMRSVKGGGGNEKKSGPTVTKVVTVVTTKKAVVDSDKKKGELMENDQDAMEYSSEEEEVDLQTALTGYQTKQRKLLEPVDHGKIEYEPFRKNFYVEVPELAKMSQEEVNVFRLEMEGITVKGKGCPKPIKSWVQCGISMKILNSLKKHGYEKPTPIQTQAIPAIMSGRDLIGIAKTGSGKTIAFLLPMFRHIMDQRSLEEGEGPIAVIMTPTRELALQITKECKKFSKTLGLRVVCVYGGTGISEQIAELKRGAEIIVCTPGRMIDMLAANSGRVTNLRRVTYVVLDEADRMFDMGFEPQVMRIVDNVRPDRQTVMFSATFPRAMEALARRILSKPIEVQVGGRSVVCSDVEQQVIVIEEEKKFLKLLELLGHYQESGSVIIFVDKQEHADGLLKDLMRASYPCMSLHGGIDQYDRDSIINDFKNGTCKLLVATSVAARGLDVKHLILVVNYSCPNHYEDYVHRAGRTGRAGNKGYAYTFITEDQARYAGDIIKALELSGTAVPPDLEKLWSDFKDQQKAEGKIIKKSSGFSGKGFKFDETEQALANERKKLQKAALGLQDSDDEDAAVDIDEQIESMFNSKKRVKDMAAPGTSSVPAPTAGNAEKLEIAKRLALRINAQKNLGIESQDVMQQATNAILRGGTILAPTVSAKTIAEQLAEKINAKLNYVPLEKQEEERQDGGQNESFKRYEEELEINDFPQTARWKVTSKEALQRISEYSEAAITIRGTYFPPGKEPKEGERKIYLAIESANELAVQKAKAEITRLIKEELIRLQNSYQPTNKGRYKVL
UniProt Q92564: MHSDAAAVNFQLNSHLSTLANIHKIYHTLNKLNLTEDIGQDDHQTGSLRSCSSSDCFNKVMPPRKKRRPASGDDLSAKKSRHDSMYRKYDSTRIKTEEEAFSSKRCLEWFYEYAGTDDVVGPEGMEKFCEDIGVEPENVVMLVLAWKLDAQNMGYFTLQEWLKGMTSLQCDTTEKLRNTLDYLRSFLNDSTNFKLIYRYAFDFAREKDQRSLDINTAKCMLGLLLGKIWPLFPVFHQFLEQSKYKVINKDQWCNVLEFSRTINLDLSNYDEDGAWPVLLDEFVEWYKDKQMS
UniProt Q14118: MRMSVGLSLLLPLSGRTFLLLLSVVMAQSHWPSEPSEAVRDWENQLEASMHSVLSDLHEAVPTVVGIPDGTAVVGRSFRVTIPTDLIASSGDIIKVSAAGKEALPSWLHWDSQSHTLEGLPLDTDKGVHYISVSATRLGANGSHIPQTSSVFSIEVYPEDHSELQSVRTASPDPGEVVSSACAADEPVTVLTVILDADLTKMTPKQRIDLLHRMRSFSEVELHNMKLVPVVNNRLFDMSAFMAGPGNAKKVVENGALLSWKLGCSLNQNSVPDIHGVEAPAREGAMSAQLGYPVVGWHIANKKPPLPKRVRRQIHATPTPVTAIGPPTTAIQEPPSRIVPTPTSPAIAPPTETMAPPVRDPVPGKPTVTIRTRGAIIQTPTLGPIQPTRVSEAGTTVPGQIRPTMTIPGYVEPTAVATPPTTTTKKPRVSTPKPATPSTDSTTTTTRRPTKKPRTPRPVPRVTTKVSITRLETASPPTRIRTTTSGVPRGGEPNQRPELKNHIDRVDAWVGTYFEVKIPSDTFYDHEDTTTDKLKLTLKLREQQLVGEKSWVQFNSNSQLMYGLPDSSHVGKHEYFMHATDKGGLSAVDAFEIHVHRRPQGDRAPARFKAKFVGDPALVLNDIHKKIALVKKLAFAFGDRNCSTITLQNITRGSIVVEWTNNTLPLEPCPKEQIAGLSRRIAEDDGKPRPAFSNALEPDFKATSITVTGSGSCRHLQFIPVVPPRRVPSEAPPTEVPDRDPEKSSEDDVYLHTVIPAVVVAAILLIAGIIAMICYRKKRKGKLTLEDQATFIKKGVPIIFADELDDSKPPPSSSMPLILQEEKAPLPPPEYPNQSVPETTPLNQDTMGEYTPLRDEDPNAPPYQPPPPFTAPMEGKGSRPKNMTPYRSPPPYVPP

Each target was assayed with Cc1cc(Nc2cc(CN3CCOCC3)c3nc(C)c(Cc4ccc(Cl)cc4F)n3n2)n[nH]1 [gandotinib] (assay: log2 fold change, soluble protein after heating vs DMSO (PISA); higher = thermal stabilisation; K562 lysate, 10 uM; active = over 0.2 and 3.5 SD of the protein, either way, in both replicates (recomputed)).
Outline: (§1)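 Values give the log-two fold change in thermal stability against solvent controls, from duplicates. Crude K562 extract at 1 mg/mL protein, made by dounce homogenisation in PBS pH 7.4 with 1 mM MgCl2, was treated with 10 μM compound for 30 min. After 3 min heating across 48°C-58°C, aliquots were pooled, adjusted to 0.5% NP-40 at 4°C and centrifuged at 21,000xg for 90 min. The supernatant was measured by TMTpro 16plex LC-MS/MS with channel sums equalised.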

log2 fold change, inactive:
DDRGK1 (UniProt Q96HY6) 0.001
DCTN1 (UniProt Q14203) -0.029
DCTN2 (UniProt Q13561) -0.029
DDX21 (UniProt Q9NR30) -0.087
DCXR (UniProt Q7Z4W1) 0.007
DDX20 (UniProt Q9UHI6) -0.137
DEF6 (UniProt Q9H4E7) 0.032
DCTN3 (UniProt O75935) -0.109
DENND4C (UniProt Q5VZ89) 0.002
DDB1 (UniProt Q16531) 0.007
DFFA (UniProt O00273) 0.046
DCP2 (UniProt Q8IU60) -0.148
DDX54 isoform 2 (UniProt Q8TDD1) 0.01
CYSTM1 (UniProt Q9H1C7) 0.105
DEK (UniProt P35659) 0.006
DCTD isoform 2 (UniProt P32321) 0.029
DDHD1 (UniProt Q8NEL9) 0.077
CYP24A1 (UniProt Q07973) 0.235
D2HGDH (UniProt Q8N465) 0.053
DAD1 (UniProt P61803) 0.022
DERL1 (UniProt Q9BUN8) 0.046
DECR1 (UniProt Q16698) 0.07
DCTPP1 (UniProt Q9H773) -0.04
DDX24 (UniProt Q9GZR7) -0.02
DDX56 (UniProt Q9NY93) -0.124
DARS (UniProt P14868) -0.081
DBN1 (UniProt Q16643) 0.005
DDX39A (UniProt O00148) -0.104
DCAF15 (UniProt Q66K64) 0.089
DBI isoform 5 (UniProt P07108) -0.112
DDX46 (UniProt Q7L014) -0.025
DDX10 (UniProt Q13206) -0.063
DCUN1D4 isoform 3 (UniProt Q92564) -0.104
DDX27 (UniProt Q96GQ7) -0.015
DENND4A isoform 2 (UniProt Q7Z401) 0.045
DAG1 (UniProt Q14118) 0.048

What follows are targets tested with Cc1cc(Nc2cc(N3CCN(C)CC3)nc(Sc3ccc(NC(=O)C4CC4)cc3)n2)n[nH]1 [tozasertib] in the same assay as above.
Outline: as §1

log2 fold change, inactive:
DDRGK1 (UniProt Q96HY6) -0.04
DCTN1 (UniProt Q14203) -0.002
DCTN2 (UniProt Q13561) -0.011
DDX21 (UniProt Q9NR30) 0.008
DCXR (UniProt Q7Z4W1) -0.015
DDX20 (UniProt Q9UHI6) -0.065
DEF6 (UniProt Q9H4E7) 0.009
DCTN3 (UniProt O75935) 0.03
DENND4C (UniProt Q5VZ89) 0.004
DDB1 (UniProt Q16531) 0
DFFA (UniProt O00273) -0.02
DCP2 (UniProt Q8IU60) 0.018
DDX54 isoform 2 (UniProt Q8TDD1) 0.035
CYSTM1 (UniProt Q9H1C7) 0.172
DEK (UniProt P35659) -0.016
DCTD isoform 2 (UniProt P32321) -0.035
DDHD1 (UniProt Q8NEL9) 0.052
CYP24A1 (UniProt Q07973) -0.02
D2HGDH (UniProt Q8N465) -0.04
DAD1 (UniProt P61803) -0.04
DERL1 (UniProt Q9BUN8) 0.053
DECR1 (UniProt Q16698) -0.015
DCTPP1 (UniProt Q9H773) 0.127
DDX24 (UniProt Q9GZR7) -0.032
DDX56 (UniProt Q9NY93) -0.061
DARS (UniProt P14868) 0.011
DBN1 (UniProt Q16643) 0.032
DDX39A (UniProt O00148) -0.008
DCAF15 (UniProt Q66K64) 0.112
DBI isoform 5 (UniProt P07108) 0.021
DDX46 (UniProt Q7L014) 0.005
DDX10 (UniProt Q13206) -0.04
DCUN1D4 isoform 3 (UniProt Q92564) -0.009
DDX27 (UniProt Q96GQ7) 0
DENND4A isoform 2 (UniProt Q7Z401) -0.027
DAG1 (UniProt Q14118) 0.052
